This note sets out measurements from the supplement of paper PMC8256030.

Where “and” joins values, the source holds several entries; their conditions need not be identical. Identical values can stand only once. The list shows a part of the results. Repeats in this data set agree poorly, so a single value says little.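 HEK293T cells were given each compound shortly before transfection with a reporter in which red mCherry is followed by the SARS-CoV-2 frameshift element and then GFP in the −1 frame, so GFP appears only after frameshifting.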

This test has as its system SARS-CoV-2 -1 PRF reporter mCherry-FSE-GFP(-1). Description: percent effect, decrease of GFP/mCherry ratio (-1 PRF reporter) relative to controls; higher = stronger frameshift inhibition. Particulars: 10 µM; 24 h; HEK293T.
In the case of `Nc1ccc(C(=O)Oc2ccccc2)c(O)c1` [fenamisal], the percent effect is -5.82%.
Then `COC(=O)[C@H](c1ccccc1Cl)N1CCc2sccc2C1` [clopidogrel], with -4.55% and 1.28%.
Next, `CO[C@H]1C[C@H](O[C@@H]2/C(C)=C\C[C@@H]3C[C@@H](C[C@]4(C=C[C@H](C)[C@@H](C(C)C)O4)O3)OC(=O)[C@@H]3C=C(C)[C@@H](O)[C@H]4OC/C(=C/C=C\[C@@H]2C)[C@]43O)O[C@@H](C)[C@H]1O[C@H]1C[C@@H](OC)[C@H](NC(C)=O)[C@H](C)O1` [eprinomectin]: -22%; `CCCSS/C(CCO)=C(/C)N(C=O)Cc1cnc(C)nc1N` [prosultiamine]: -1.6%.
As to `COC(=O)CCC(=O)CN` [Metvixia], the percent effect was -3.16%.
Then `CCCCC(=O)O[C@H]1CC[C@H]2[C@@H]3CCc4cc(O)ccc4[C@H]3CC[C@]12C` [estradiol valerate], with -2.41%; and `Cc1cc2c(s1)Nc1ccc(F)cc1N=C2N1CCN(C)CC1` [flumezapine], with 1.81%; and `CCOC(=O)OC(C)OC(=O)[C@@H]1N2C(=O)[C@@H](NC(=O)[C@H](N)c3ccccc3)[C@H]2SC1(C)C` (stereo partly specified), with 3.03%.
Then `CC(C)N(CCC(CCN1CCCCC1)(C(N)=O)c1ccccc1Cl)C(C)C` (stereo unspecified) [disobutamide], with -5.19%; and `CO[C@H]1/C=C/O[C@@]2(C)Oc3c(C)c(O)c4c(O)c(c(/C=N/N5CCN(C)CC5)c(O)c4c3C2=O)NC(=O)/C(C)=C\C=C\[C@H](C)[C@H](O)[C@@H](C)[C@@H](O)[C@@H](C)[C@H](OC(C)=O)[C@@H]1C` [Rifadin], with 3.5%; and `C[N+](C)(C)CCOP(=O)(O)OP(=O)([O-])OC[C@H]1O[C@@H](n2ccc(N)nc2=O)[C@H](O)[C@@H]1O`, with 2.52%.
Then `CCCCCC(C)NCc1c(C)cc(C)cc1C` (stereo unspecified) [trimexiline], with 4.62%; and `Nc1nc(=O)[nH]cc1F` [flucytosine], with -2%; and `NCCNCCNCCN`, with 0.317%.
`CC(C)=CCC/C(C)=C/CC/C(C)=C/C=C/C(C)=C/C(=O)O` [peretinoin]: the percent effect was -5.99%.
Next, `CC1(C)S[C@@H]2[C@H](/N=C/N3CCCCCC3)C(=O)N2[C@H]1C(=O)O` [mecillinam]: -4.46%.
Then `CCN1CCN(C(=O)N[C@@H](C(=O)N[C@@H]2C(=O)N3C(C(=O)O)=C(CSc4nnnn4C)CS[C@H]23)c2ccc(O)cc2)C(=O)C1=O` [Cefobid], with -2.99% and 1.52%.
Regarding `CC(OCCN1CCCCCC1)(c1ccccc1)c1ccc(Cl)cc1` (stereo unspecified) [setastine], the percent effect was -0.895%.
Then `CC[C@@H]1/C=C(\C)C[C@H](C)C[C@H](OC)[C@H]2O[C@@](O)(C(=O)C(=O)N3CCCC[C@H]3C(=O)O[C@H](/C(C)=C/[C@@H]3CC[C@H](Cl)[C@H](OC)C3)[C@H](C)[C@@H](O)CC1=O)[C@H](C)C[C@@H]2OC` [Pimecrolimus], with 0.387%; and `C[C@@](Cc1ccc(O)c(O)c1)(NN)C(=O)O` [carbidopa], with 3.96% and 1.57%.
Next, `CN(C(=O)C(Cl)Cl)c1ccc(OC(=O)c2ccco2)cc1`: -4.63%.
Next, `CC(=O)O[C@@]12CO[C@@H]1C[C@H](O)[C@@]1(C)C(=O)[C@H](O)C3=C(C)[C@@H](OC(=O)[C@H](O)[C@@H](NC(=O)OC(C)(C)C)c4ccccc4)C[C@@](O)([C@@H](OC(=O)c4ccccc4)[C@H]21)C3(C)C`: -1.26%; `CSc1ccc2c(c1)C(N1CCN(C)CC1)Cc1ccccc1S2` (stereo unspecified) [metitepine]: -2.25%; `Cc1cnc(C(=O)NCCc2ccc(S(=O)(=O)NC(=O)NC3CCCCC3)cc2)cn1` [Glipizide]: -1.73%.
For the compound `CCN(CC)CCOC(=O)C(c1ccccc1)c1ccccc1` [adiphenine], the percent effect turned out to be 0.402%.
Take `CCCCC(C(=O)O)C(=O)N(Nc1ccccc1)c1ccccc1` (stereo unspecified) [bumadizone]: the percent effect is -2.31%.
